Results: paper doi:10.1101/2023.02.03.527076
No constants are given. Whether binding was seen depends on the method and setting. Binding seen in cells or lysates may run through a third protein. These calls come from enrichment with a bait or labelling near it, and not all partners need be listed. Sequences can lack the tags named with a protein.

T1: TAP-AtSYP32 (9 x myc-AtSYP32) fusion protein (Arabidopsis thaliana) (UniProt Q9LK09)
T1 sequence: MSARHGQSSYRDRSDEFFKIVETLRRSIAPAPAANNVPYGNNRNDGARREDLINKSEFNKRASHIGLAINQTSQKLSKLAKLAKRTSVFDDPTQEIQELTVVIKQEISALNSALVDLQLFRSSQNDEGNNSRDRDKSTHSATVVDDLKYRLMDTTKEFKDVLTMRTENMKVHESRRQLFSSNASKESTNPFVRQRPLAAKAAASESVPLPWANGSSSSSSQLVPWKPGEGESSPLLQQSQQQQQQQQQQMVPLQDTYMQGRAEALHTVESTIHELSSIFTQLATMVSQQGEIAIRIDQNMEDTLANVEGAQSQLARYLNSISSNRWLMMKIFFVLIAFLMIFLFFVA

B1: SEC22 (endogenous) (protein, UniProt Q94AU2 1-218)
chain: MVKMTLIARVTDGLPLAEGLDDGRDLPDSDMYKQQVKALFKNLSRGQNDASRMSVETGPYVFHYIIEGRVCYLTMCDRSYPKKLAFQYLEDLKNEFERVNGPNIETAARPYAFIKFDTFIQKTKKLYQDTRTQRNIAKLNDELYEVHQIMTRNVQEVLGVGEKLDQVSEMSSRLTSESRIYADKAKDLNRQALIRKWAPVAIVFGVVFLLFWVKNKLW
B2: SEC31B (endogenous) (protein, UniProt Q8L611 1-1104)
chain: MACIKGVGRSASVALAPDAPYMAAGTMAGAVDLSFSSSANLEIFKLDFQSDDRDLPLVGEIPSSERFNRLAWGRNGSGSEEFALGLIAGGLVDGNIDLWNPLSLIGSQPSENALVGHLSVHKGPVRGLEFNAISSNLLASGADDGEICIWDLLKPSEPSHFPLLKGSGSATQGEISFISWNRKVQQILASTSYNGTTVIWDLRKQKPIINFADSVRRRCSVLQWNPNVTTQIMVASDDDSSPTLKLWDMRNIMSPVREFTGHQRGVIAMEWCPSDSSYLLTCAKDNRTICWDTNTAEIVAELPAGNNWNFDVHWYPKIPGVISASSFDGKIGIYNIEGCSRYGVEENNFGTAPLKAPKWYKRPVGASFGFGGKLVSCHARAPAKGTSSILSEVFLHSLVTEQSLVSRTSEFEAAIENGDMTSLRGLCEKKSEETESEEEKETWGLLKIMFEEEGTSRTKLISHLGFTLPVAEKDQAVDGLSSDLNGIRLEDTAADALDLDDSNEAAAFAMDNGEDFFNNFPAKPDTPVSTSAKDFMPSDTDFSTKGEETQEMQEEEEESSDPVFDNAIQRALIVGDYKEAVDQCITANKMADALVIAHVGGTALWESTREKYLKTSSAPYMKVVSAMVNNDLRSLIYTRSHKFWKETLALLCTFAQGEQWTTLCDALASKLMAAGNTLAAVLCYICAGNVDRTVEIWSRSLANERDGRSYAELLQDLMEKTLVLALATGNKKFSASLCKLFESYAEILASQGLLTTAMKYLKVLDSGGLSPELSILRDRISLSAEPETNTTASGNTQPQSTMPYNQEPTQAQPNVLANPYDNQYQQPYTDSYYVPQVSHPPMQQPTMFMPHQAQPAPQPSFTPAPTSNAQPSMRTTFVPSTPPALKNADQYQQPTMSSHSFTGPSNNAYPVPPGPGQYAPSGPSQLGQYPNPKMPQVVAPAAGPIGFTPMATPGVAPRSVQPASPPTQQAAAQAAPAPATPPPTVQTADTSNVPAHQKPVIATLTRLFNETSEALGGARANTTKKREIEDNSRKLGALFVKLNSGDISKNAADKLAQLCQALDNNDFSTALQIQVLLTTSEWDECNFWLATLKRMMVKARQNVR
B3: BET11 (endogenous) (protein, UniProt Q9M2J9 1-122)
chain: MNPRREPRGGRSSLFDGIEEGGIRAASSYSHEINEHENERALEGLQDRVILLKRLSGDINEEVDTHNRMLDRMGNDMDSSRGFLSGTMDRFKTVFETKSSRRMLTLVASFVGLFLVIYYLTR
B4: CESA1 (endogenous) (enzyme, UniProt O48946 1-1081)
chain: MEASAGLVAGSYRRNELVRIRHESDGGTKPLKNMNGQICQICGDDVGLAETGDVFVACNECAFPVCRPCYEYERKDGTQCCPQCKTRFRRHRGSPRVEGDEDEDDVDDIENEFNYAQGANKARHQRHGEEFSSSSRHESQPIPLLTHGHTVSGEIRTPDTQSVRTTSGPLGPSDRNAISSPYIDPRQPVPVRIVDPSKDLNSYGLGNVDWKERVEGWKLKQEKNMLQMTGKYHEGKGGEIEGTGSNGEELQMADDTRLPMSRVVPIPSSRLTPYRVVIILRLIILCFFLQYRTTHPVKNAYPLWLTSVICEIWFAFSWLLDQFPKWYPINRETYLDRLAIRYDRDGEPSQLVPVDVFVSTVDPLKEPPLVTANTVLSILSVDYPVDKVACYVSDDGSAMLTFESLSETAEFAKKWVPFCKKFNIEPRAPEFYFAQKIDYLKDKIQPSFVKERRAMKREYEEFKVRINALVAKAQKIPEEGWTMQDGTPWPGNNTRDHPGMIQVFLGHSGGLDTDGNELPRLIYVSREKRPGFQHHKKAGAMNALIRVSAVLTNGAYLLNVDCDHYFNNSKAIKEAMCFMMDPAIGKKCCYVQFPQRFDGIDLHDRYANRNIVFFDINMKGLDGIQGPVYVGTGCCFNRQALYGYDPVLTEEDLEPNIIVKSCCGSRKKGKSSKKYNYEKRRGINRSDSNAPLFNMEDIDEGFEGYDDERSILMSQRSVEKRFGQSPVFIAATFMEQGGIPPTTNPATLLKEAIHVISCGYEDKTEWGKEIGWIYGSVTEDILTGFKMHARGWISIYCNPPRPAFKGSAPINLSDRLNQVLRWALGSIEILLSRHCPIWYGYHGRLRLLERIAYINTIVYPITSIPLIAYCILPAFCLITDRFIIPEISNYASIWFILLFISIAVTGILELRWSGVSIEDWWRNEQFWVIGGTSAHLFAVFQGLLKVLAGIDTNFTVTSKATDEDGDFAELYIFKWTALLIPPTTVLLVNLIGIVAGVSYAVNSGYQSWGPLFGKLFFALWVIAHLYPFLKGLLGRQNRTPTIVIVWSVLLASIFSLLWVRINPFVDANPNANNFNGKGGVF
B5: CESA9 (endogenous) (enzyme, UniProt Q9SJ22 1-1088)
chain: MNTGGRLIAGSHNRNEFVLINADDTARIRSAEELSGQTCKICRDEIELTDNGEPFIACNECAFPTCRPCYEYERREGNQACPQCGTRYKRIKGSPRVEGDEEDDDIDDLEHEFYGMDPEHVTEAALYYMRLNTGRGTDEVSHLYSASPGSEVPLLTYCDEDSDMYSDRHALIVPPSTGLGNRVHHVPFTDSFASIHTRPMVPQKDLTVYGYGSVAWKDRMEVWKKQQIEKLQVVKNERVNDGDGDGFIVDELDDPGLPMMDEGRQPLSRKLPIRSSRINPYRMLIFCRLAILGLFFHYRILHPVNDAFGLWLTSVICEIWFAVSWILDQFPKWYPIERETYLDRLSLRYEKEGKPSELAPVDVFVSTVDPLKEPPLITANTVLSILAVDYPVEKVACYVSDDGAAMLTFEALSYTAEFARKWVPFCKKFSIEPRAPEWYFSQKMDYLKHKVDPAFVMERRAMKRDYEEFKVKINALVSVSQKVPEDGWTMQDGTPWPGNNVRDHPGMIQVFLGHSGVCDMDGNELPRLVYVSREKRPGFDHHKKAGAMNSLIRVSAVLSNAPYLLNVDCDHYINNSKAIREAMCFMMDPQSGKKICYVQFPQRFDGIDRHDRYSNRNVVFFDINMKGLDGIQGPIYVGTGCVFRRQALYGFDAPKKKQPPGRTCNCWPKWCCLCCGMRKKKTGKVKDNQRKKPKETSKQIHALEHIEEGLQVTNAENNSETAQLKLEKKFGQSPVLVASTLLLNGGVPSNVNPASLLRESIQVISCGYEEKTEWGKEIGWIYGSVTEDILTGFKMHCHGWRSVYCMPKRAAFKGSAPINLSDRLHQVLRWALGSVEIFLSRHCPIWYGYGGGLKWLERFSYINSVVYPWTSLPLLVYCSLPAICLLTGKFIVPEISNYAGILFLLMFMSIAVTGILEMQWGKIGIDDWWRNEQFWVIGGVSSHLFALFQGLLKVLAGVSTNFTVTSKAADDGEFSELYIFKWTSLLIPPTTLLIINIVGVIVGVSDAINNGYDSWGPLFGRLFFALWVIVHLYPFLKGLLGKQDRVPTIILVWSILLASILTLLWVRVNPFVSKDGPVLEICGLDCLK
B6: UDP-sugar-pyrophosphorylase (USP) (endogenous) (enzyme, UniProt Q9C5I1 1-614)
chain: MASTVDSNFFSSVPALHSNLGLLSPDQIELAKILLENGQSHLFQQWPELGVDDKEKLAFFDQIARLNSSYPGGLAAYIKTAKELLADSKVGKNPYDGFSPSVPSGENLTFGTDNFIEMEKRGVVEARNAAFVLVAGGLGERLGYNGIKVALPRETTTGTCFLQHYIESILALQEASNKIDSDGSERDIPFIIMTSDDTHSRTLDLLELNSYFGMKPTQVHLLKQEKVACLDDNDARLALDPHNKYSIQTKPHGHGDVHSLLYSSGLLHKWLEAGLKWVLFFQDTNGLLFNAIPASLGVSATKQYHVNSLAVPRKAKEAIGGISKLTHVDGRSMVINVEYNQLDPLLRASGFPDGDVNCETGFSPFPGNINQLILELGPYKDELQKTGGAIKEFVNPKYKDSTKTAFKSSTRLECMMQDYPKTLPPTARVGFTVMDIWLAYAPVKNNPEDAAKVPKGNPYHSATSGEMAIYRANSLILQKAGVKVEEPVKQVLNGQEVEVWSRITWKPKWGMIFSDIKKKVSGNCEVSQRSTMAIKGRNVFIKDLSLDGALIVDSIDDAEVKLGGLIKNNGWTMESVDYKDTSVPEEIRIRGFRFNKVEQLEKKLTQPGKFSVED

target: T1, TAP-AtSYP32 (9 x myc-AtSYP32) fusion protein (Arabidopsis thaliana); assay: affinity purification with mass spectrometry

binding, binds:
B1, B2, B3, B4, B5, B6
